No constants are given. Whether binding was seen depends on the method and setting. Binding seen in cells or lysates may run through a third protein. A yes stands for co-enrichment or nearness to the bait. Other partners may have been found.
B1: Heterogeneous nuclear ribonucleoprotein M (HNRNPM) (protein, UniProt P52272 1-730)
chain: MAAGVEAAAEVAATEIKMEEESGAPGVPSGNGAPGPKGEGERPAQNEKRKEKNIKRGGNRFEPYANPTKRYRAFITNIPFDVKWQSLKDLVKEKVGEVTYVELLMDAEGKSRGCAVVEFKMEESMKKAAEVLNKHSLSGRPLKVKEDPDGEHARRAMQKVMATTGGMGMGPGGPGMITIPPSILNNPNIPNEIIHALQAGRLGSTVFVANLDYKVGWKKLKEVFSMAGVVVRADILEDKDGKSRGIGTVTFEQSIEAVQAISMFNGQLLFDRPMHVKMDERALPKGDFFPPERPQQLPHGLGGIGMGLGPGGQPIDANHLNKGIGMGNIGPAGMGMEGIGFGINKMGGMEGPFGGGMENMGRFGSGMNMGRINEILSNALKRGEIIAKQGGGGGGGSVPGIERMGPGIDRLGGAGMERMGAGLGHGMDRVGSEIERMGLVMDRMGSVERMGSGIERMGPLGLDHMASSIERMGQTMERIGSGVERMGAGMGFGLERMAAPIDRVGQTIERMGSGVERMGPAIERMGLSMERMVPAGMGAGLERMGPVMDRMATGLERMGANNLERMGLERMGANSLERMGLERMGANSLERMGPAMGPALGAGIERMGLAMGGGGGASFDRAIEMERGNFGGSFAGSFGGAGGHAPGVARKACQIFVRNLPFDFTWKMLKDKFNECGHVLYADIKMENGKSKGCGVVKFESPEVAERACRMMNGMKLSGREIDVRIDRNA
B2: Purine-rich element binding protein A (PURA) (protein, UniProt Q00577 1-322)
chain: MADRDSGSEQGGAALGSGGSLGHPGSGSGSGGGGGGGGGGGGSGGGGGGAPGGLQHETQELASKRVDIQNKRFYLDVKQNAKGRFLKIAEVGAGGNKSRLTLSMSVAVEFRDYLGDFIEHYAQLGPSQPPDLAQAQDEPRRALKSEFLVRENRKYYMDLKENQRGRFLRIRQTVNRGPGLGSTQGQTIALPAQGLIEFRDALAKLIDDYGVEEEPAELPEGTSLTVDNKRFFFDVGSNKYGVFMRVSEVKPTYRNSITVPYKVWAKFGHTFCKYSEEMKKIQEKQREKRAACEQLHQQQQQQQEETAAATLLLQGEEEGEED

Biological target: IE2-p86 protein with a carboxyl-terminal SG-tag (human cytomegalovirus (Towne))
Assay: affinity purification with mass spectrometry; tandem affinity purification of IE2-p86SG (rabbit-IgG agarose, TEV protease elution, streptavidin resin, D-biotin elution) from HFF infected with Towne IE2SG at MOI 2, harvested 8, 24 and 48 h p.i.; lysis buffer 50 mM Tris-HCl pH 7.5, 125 mM NaCl, 5% glycerol, 0.5% NP-40, with Benzonase; nanoLC-MS/MS; control Towne-wt

Binder	binding
B1	binds
B2	binds

Reference: PMC3864812
